Test results published in article PMC2963310 (Science (New York, N.Y.), 2009).

Protein sequences, listed by entry. Tags and fused reporters are not part of them. Lines headed by an entry give the natural chain unless they say otherwise; changes in a name come on top.
UniProt H2KYN9: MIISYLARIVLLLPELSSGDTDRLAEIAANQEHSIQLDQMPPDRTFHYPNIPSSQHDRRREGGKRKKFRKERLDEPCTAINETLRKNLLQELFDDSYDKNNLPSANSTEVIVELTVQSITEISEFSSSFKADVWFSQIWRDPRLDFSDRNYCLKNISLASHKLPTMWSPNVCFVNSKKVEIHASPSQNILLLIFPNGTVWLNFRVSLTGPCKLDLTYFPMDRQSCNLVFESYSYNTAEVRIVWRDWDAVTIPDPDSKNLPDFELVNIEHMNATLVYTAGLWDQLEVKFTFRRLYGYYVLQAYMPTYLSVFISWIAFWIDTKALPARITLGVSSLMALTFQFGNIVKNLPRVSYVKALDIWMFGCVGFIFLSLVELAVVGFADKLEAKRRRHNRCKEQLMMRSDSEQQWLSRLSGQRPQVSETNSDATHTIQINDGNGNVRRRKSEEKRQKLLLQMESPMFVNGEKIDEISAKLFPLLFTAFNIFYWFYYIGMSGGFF

Target: LGC-53 (Caenorhabditis elegans, UniProt H2KYN9)
Test: Inhibition of dopamine-evoked LGC-53 currents in Xenopus oocytes
Format: cell-based

## Cc1nc2n(c(=O)c1CCN1CCC(c3noc4cc(F)ccc34)CC1)CCCC2 [risperidone]
  IC50: 40 µM

## O=C(CCCN1CCC(O)(c2ccc(Cl)cc2)CC1)c1ccc(F)cc1 [haloperidol]
  IC50: 32 µM
